## Library screen at single concentrations

The chains behind the UniProt entries cited, without tags or fusion partners.
UniProt I6X8D2, whole entry: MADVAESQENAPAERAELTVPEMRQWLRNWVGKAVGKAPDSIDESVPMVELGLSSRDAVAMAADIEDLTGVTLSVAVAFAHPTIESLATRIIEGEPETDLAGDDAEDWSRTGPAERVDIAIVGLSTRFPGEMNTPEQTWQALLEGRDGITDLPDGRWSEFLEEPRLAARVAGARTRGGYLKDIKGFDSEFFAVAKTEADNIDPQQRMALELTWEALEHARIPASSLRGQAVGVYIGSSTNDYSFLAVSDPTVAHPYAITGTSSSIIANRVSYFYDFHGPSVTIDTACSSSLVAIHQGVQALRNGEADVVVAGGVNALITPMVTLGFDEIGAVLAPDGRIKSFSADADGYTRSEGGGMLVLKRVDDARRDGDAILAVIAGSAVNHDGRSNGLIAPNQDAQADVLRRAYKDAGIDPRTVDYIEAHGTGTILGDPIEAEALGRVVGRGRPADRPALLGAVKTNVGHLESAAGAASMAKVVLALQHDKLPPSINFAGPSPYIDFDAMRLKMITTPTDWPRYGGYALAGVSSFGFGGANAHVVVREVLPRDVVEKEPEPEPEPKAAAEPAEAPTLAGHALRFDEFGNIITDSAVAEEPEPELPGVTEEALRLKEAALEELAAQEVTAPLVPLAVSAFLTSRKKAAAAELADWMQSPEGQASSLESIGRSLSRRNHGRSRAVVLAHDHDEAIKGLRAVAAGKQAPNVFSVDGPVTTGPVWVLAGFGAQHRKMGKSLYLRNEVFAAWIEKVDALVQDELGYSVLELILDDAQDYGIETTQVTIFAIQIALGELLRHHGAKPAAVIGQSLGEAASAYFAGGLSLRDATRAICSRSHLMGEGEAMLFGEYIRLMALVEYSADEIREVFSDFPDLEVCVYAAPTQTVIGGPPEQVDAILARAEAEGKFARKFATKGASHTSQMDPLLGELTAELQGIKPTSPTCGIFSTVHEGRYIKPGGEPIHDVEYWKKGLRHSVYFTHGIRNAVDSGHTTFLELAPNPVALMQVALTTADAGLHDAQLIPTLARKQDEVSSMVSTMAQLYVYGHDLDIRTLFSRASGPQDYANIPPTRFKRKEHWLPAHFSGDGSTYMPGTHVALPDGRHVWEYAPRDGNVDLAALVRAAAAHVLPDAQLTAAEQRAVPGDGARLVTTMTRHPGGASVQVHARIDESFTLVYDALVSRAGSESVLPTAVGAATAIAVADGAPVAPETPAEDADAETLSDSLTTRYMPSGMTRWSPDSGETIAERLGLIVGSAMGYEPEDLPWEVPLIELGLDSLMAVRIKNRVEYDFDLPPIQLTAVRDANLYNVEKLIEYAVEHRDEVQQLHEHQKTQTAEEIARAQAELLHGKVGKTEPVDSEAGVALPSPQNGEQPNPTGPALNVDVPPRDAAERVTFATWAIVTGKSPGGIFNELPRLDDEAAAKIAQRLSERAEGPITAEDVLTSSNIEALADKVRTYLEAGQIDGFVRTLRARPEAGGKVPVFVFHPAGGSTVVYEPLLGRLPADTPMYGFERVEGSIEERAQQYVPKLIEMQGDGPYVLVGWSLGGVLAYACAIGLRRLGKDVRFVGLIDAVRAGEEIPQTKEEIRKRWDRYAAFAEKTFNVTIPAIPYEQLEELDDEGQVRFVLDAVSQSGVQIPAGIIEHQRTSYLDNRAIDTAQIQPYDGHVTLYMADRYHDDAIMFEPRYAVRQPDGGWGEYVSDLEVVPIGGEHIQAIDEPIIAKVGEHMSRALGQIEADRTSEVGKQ
UniProt P9WPC5, whole entry: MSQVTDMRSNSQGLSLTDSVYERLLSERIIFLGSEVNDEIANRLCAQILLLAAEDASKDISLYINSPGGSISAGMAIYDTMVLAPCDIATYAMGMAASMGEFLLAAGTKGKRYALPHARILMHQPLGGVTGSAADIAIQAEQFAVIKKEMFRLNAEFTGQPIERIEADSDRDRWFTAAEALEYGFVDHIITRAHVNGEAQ
UniProt P9WPC3, whole entry partner: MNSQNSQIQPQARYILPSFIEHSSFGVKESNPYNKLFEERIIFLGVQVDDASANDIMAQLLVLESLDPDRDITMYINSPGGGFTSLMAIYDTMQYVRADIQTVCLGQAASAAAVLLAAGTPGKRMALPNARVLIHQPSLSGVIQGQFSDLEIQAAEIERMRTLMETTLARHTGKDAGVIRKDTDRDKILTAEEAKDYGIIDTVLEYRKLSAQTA

Data taken from ChEMBL document CHEMBL3988442, “University of Dundee, Small-Polar-MMV Screening Library” (2021).

Leishmania in macrophages: 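Cell assay of Leishmania donovani living inside macrophages; the read-out is not stated. Concentration: 30 µM. Higher reads as stronger inhibition (inferred: compounds with an IC50 in retests scored well above the rest). Size under these conditions: about 69,000 compounds, about 1,000 of them at 50% or above in at least one test.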
Pks13 thioesterase: 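Polyketide synthase Pks13, Mycobacterium tuberculosis (UniProt I6X8D2). Enzyme assay of the thioesterase domain of polyketide synthase 13; the read-out is not stated. Concentration: 30 µM. The record gives no direction; the compounds picked for IC50 retests had high values, so higher reads as stronger inhibition. About 67,000 compounds were tested under these conditions; 0.46% (about 300) showed 50% or more at least once.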
ClpP1P2: 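ClpP1P2, Mycobacterium tuberculosis (UniProt P9WPC5 and UniProt P9WPC3). Protease assay of ClpP1P2, read by the AMC dye that it sets free. Concentration: 50 µM. Direction is inferred from only a few compounds that gave an IC50; most scored high, so higher reads as stronger inhibition. Most other retested compounds had strongly negative values. Size under these conditions: about 69,000 compounds, about 10 of them at 50% or above in at least one test.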
T. brucei: 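Whole-parasite assay of Trypanosoma brucei over 72 hours; the read-out is not stated. Compounds at 30 µM. Higher reads as stronger inhibition (inferred: compounds with an IC50 in retests scored well above the rest). Values scatter widely below zero; nearly all retest evidence comes from the higher of the two concentrations used. Of about 64,000 compounds tested this way, about 940 (1.5%) reached 50% or more in at least one test.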

The filed quantity is “Percent Effect” (%). The record does not define 0% and 100%; most values in the screen are far below 50% and negative numbers occur (in some assays of this library far below -100). This is an unselected part of the compounds tested. Two or more numbers in one place are separate tests of the same structure; such repeats can differ widely.

- O=C(NCCNc1ccccn1)N1CCC(O)CC1 | Leishmania in macrophages: -0.2833%; Pks13 thioesterase: -20.04%; ClpP1P2: -11.65%
- COc1cc(CCC(=O)NC(C)(C)C)ccc1OCC(F)(F)F | Leishmania in macrophages: 20.88%; Pks13 thioesterase: -5.488%; ClpP1P2: -7.233%; T. brucei: 17.98%
- CC(C)Cc1noc(CN2CCOCC2C)n1 (centres undefined) | Leishmania in macrophages: 8.737%; Pks13 thioesterase: 0.7189%; ClpP1P2: -4.065%; T. brucei: -14.5%
- Cc1c(C)n(CC(O)CN2CCN(CCO)CC2)c2c(Cl)cccc12.Cl (centres undefined) | Leishmania in macrophages: 50.22%; T. brucei: 7.929%
- COCCn1ccc(=O)c(OCC(=O)Nc2ccc(OC)cc2)c1C | Leishmania in macrophages: -10.11%; Pks13 thioesterase: -20.55%; ClpP1P2: -10.19%; T. brucei: 15.4%
- c1ccc(CCN2CCC(OCC3CCCCO3)CC2)nc1 (centres undefined) | Leishmania in macrophages: 23.49%; Pks13 thioesterase: -20.47%; ClpP1P2: 2.35%; T. brucei: -116%
- CN(C)c1nccc(N2CCO[C@H]3CN(Cc4ccsc4)C[C@H]32)n1 | Pks13 thioesterase: -12.42%; ClpP1P2: -1.491%
- [H][C@@]12CCCC[C@]1(O)CCN(Cc1ccc(OCC(N)=O)c(Cl)c1)C2 | Leishmania in macrophages: 13.03%; T. brucei: -51.13%
- Cc1cccc(CC(=O)Nc2cccnc2N2CCC(CO)CC2)c1 | Leishmania in macrophages: -6.257%; Pks13 thioesterase: -15.29%; ClpP1P2: 14.24%; T. brucei: -19.28%
- Cc1nccn1CC1CCN(C(=O)Cc2ccccc2)CC1 | Leishmania in macrophages: -31.28% and -4.037%; Pks13 thioesterase: 40.24%; ClpP1P2: -8.394%; T. brucei: -11.09%
- CS(=O)(=O)NCc1cnc2n1CCN(Cc1ccoc1)CC2.O=C(O)C(F)(F)F | Leishmania in macrophages: -8.442%; T. brucei: -17.96%
- CCOc1ccnc(NCc2nc(C)cc(=O)[nH]2)n1 | Leishmania in macrophages: 31.93%; Pks13 thioesterase: -22.32%; ClpP1P2: 0.9517%; T. brucei: -23.37%
- COCc1noc(CCNc2ncnc3c2CCNCC3)n1 | Leishmania in macrophages: 2.148%; Pks13 thioesterase: -9.749%; ClpP1P2: -2.978%; T. brucei: -3.248%
- N#CCCN(CCN1CCOCC1)Cc1ccc(F)c(Br)c1 | Leishmania in macrophages: -1.462%; Pks13 thioesterase: -8.776%; ClpP1P2: 7.502%; T. brucei: 6.971%
- CNCC(=O)N1CCCCC1c1nccc(C)n1 (centres undefined) | Leishmania in macrophages: 1.659%; Pks13 thioesterase: -262.3%; ClpP1P2: -8.953%; T. brucei: -8.995%
- Cc1cnn(CCCNC(=O)NC2CCN(CC(F)(F)F)C2=O)c1 (centres undefined) | Leishmania in macrophages: 38.2%; Pks13 thioesterase: -28.71%; ClpP1P2: -3.28%; T. brucei: -19.02%
- CCOCCCC(=O)Nc1[nH]nc(-c2ccncc2)c1C | Leishmania in macrophages: 25.28%; Pks13 thioesterase: -31.26%; ClpP1P2: 9.629%; T. brucei: 0.8649%

The last 2 entries again:

- Cc1cnn(CCCNC(=O)NC2CCN(CC(F)(F)F)C2=O)c1 (centres undefined) | Leishmania in macrophages: 38.2%; Pks13 thioesterase: -28.71%; ClpP1P2: -3.28%; T. brucei: -19.02%
- CCOCCCC(=O)Nc1[nH]nc(-c2ccncc2)c1C | Leishmania in macrophages: 25.28%; Pks13 thioesterase: -31.26%; ClpP1P2: 9.629%; T. brucei: 0.8649%